The match of structure and compound is tentative.
How the values were obtained:
CDK6/CyclinD1 = CDK6/CyclinD1 (Homo sapiens, UniProt Q00534); test: In vitro cell-free CDK6/CyclinD1 kinase activity assay (TR-FRET); settings: read-out: IC50 (CDK6), ATP at Km
MCF-7 cells = test: Cell viability assay, MCF-7 cells (CellTiter-Glo, 168 h); settings: read-out: IC50 (MCF-7)

Protein sequences, listed by entry. Tags and fused reporters are not part of them.
UniProt Q00534, whole entry: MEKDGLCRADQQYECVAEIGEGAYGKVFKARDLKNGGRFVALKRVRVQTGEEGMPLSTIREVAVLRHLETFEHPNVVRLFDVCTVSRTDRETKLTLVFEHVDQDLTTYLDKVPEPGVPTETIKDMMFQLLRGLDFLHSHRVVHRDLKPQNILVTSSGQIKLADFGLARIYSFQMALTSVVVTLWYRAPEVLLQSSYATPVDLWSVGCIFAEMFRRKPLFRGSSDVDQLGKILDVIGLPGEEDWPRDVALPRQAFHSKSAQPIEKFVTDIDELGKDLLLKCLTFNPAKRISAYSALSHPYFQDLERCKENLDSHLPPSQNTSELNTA
UniProt P24385, whole entry partner: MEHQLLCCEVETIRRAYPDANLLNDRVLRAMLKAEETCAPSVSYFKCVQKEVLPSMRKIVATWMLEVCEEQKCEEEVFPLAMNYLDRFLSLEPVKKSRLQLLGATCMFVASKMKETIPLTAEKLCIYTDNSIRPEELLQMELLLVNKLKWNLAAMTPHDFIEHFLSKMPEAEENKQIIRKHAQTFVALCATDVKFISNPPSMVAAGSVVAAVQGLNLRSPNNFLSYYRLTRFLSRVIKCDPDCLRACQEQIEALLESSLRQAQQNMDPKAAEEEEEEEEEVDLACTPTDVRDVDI

Cn1cc(-c2cc3cnc(Nc4ccc(N5CCNCC5)cn4)nn3c2C2=CCCC2)cn1
IC50 (CDK6/CyclinD1): < 100 nM | IC50 (MCF-7 cells): < 500 nM

— patent US20230002393A1, “CDK KINASE INHIBITOR” (BEIJING BENICALL BIOTECH CO., LTD., priority 2019, published 2023)
